B1: anti-TROP2 #TP5 VHH (VHH)
VHH: QLQLVESGGGLVQPGGSLKLSCAASGFTLDYWTIGWFRQAPGKEREGVSCISSSDGSTYYADSVKGRFTISRDNAKRTVNLQMNSLKPEDTAVYYCAAGSLGYCSRSTPQYEYDFWGQGTQVTVSS
B2: anti-TROP2 #TP8 VHH (VHH)
VHH: B1 VHH with K19R, I51V, D55G, S57I, A75E, N80Y, F115Y
B3: anti-TROP2 #TP7 VHH (VHH)
VHH: B1 VHH with K19R, T28S, D30E, Y31H, G56A, R77K, T78S, N80Y, P88L, F115Y
B4: anti-TROP2 #TP17 VHH (VHH)
VHH: EVQLVESGGGMVQPGGSLRLSCAFSGLTFSNYAMTWYRQAPGKERELVAGTPSPGGTTTYADSVKGRFTISRDNAEDTVYLQMNSLKPEDTAVYYCHARWMWPSDNAGMGYWGKGTLVTVSS
B5: anti-TROP2 #TP18 VHH (VHH)
VHH: QVQLVESGGGLVQPGGSLRLSCAASSSIFSIAIMGWYRQAPGKQRELVATISATDVTHYADSVKGRFTISRDDAWNAVYLQMDSLKAEDTAVYYCNSYLLQQRVPWGQGTQVTVSS
B6: anti-TROP2 #TP19 VHH (VHH)
VHH: B5 VHH with Q1E, L4V, S26R, I28V, S30N, T50S, H58S, A87S
B7: anti-TROP2 #TP16 VHH (VHH)
VHH: QVQLVESGGGLVQPGGSLRLSCAASGFAFSFYVMTWYRQAPGKQREQVAAITSYGGANYADSVKGRFTISRDNAKNTVYLQMNALTSEDTAVYSCNAHLGPYDYWGQGTQVTVSS
B8: anti-TROP2 #TP13 VHH (VHH)
VHH: EVQLVESGGGLVQPGGSLRLSCALSGFTKDYYGIGWFRQAPGKEREGVSCISVSGSSTNYADSVKGRFTISRDNAKNTVYLQMNSLKPEDTGVYYCAAAFMGSDYVVPEMSREYDYWGQGTQVTVSS
B9: anti-TROP2 #TP6 VHH (VHH)
VHH: QLQLVESGGGLVQPGGSLRLSCAASGTLDYWTVGWFRQAPGKEREGVSCISSSDSSTYYADSVKGRFTISRDNAKNTVYLQMNSLKPEDTAVYYCAAGSLGYCSRSTPQYEYDFWGQGTQVTVSS
B10: anti-TROP2 #TP4 VHH (VHH)
VHH: QLQLVESGGGLVQPGGSLRLSCAASGFTLDDYAMRWFRQAPGKAREGVSCISRSDGTTYYADSVKGRFTISRNNAENTVYLQMNSLKPEDTAVYYCAADSLGCNGYSDWGVDYWAKGTLVTVSS
B11: anti-TROP2 #TP11 VHH (VHH)
VHH: QVQLVESGGGLVQPGGSLRVSCAASGFRLDYYAIGWFRQAPGKEREGVSSINYSSGSTVYADSVKGRFTISRGNAKNTVYLQMNSLKPEDTAVYYCAVGTVVTSLAPYEYDYWGQGTQVTVSS
B12: anti-TROP2 #TP15 VHH (VHH)
VHH: QVQLVESGGGLVQPGGSLRLSCAVSGDIFSFYSMGWYRQAPGEQRELVAHITSGGSTHYADSVKGRFTISRDNAKNTVYLQMNSPKPEDTAVYYCNADLDYWVDSMGPYWGQGTQVTVSS
B13: anti-TROP2 #TP14 VHH (VHH)
VHH: EVQVVESGGGLVQPGGSLRLSCAVSGFTLDWYAIGWFRQAPGKEHEGVACIDPSERSTYADPVKGRFTISRDNAKNTVHLQMNSLKPEDTAVYYCAADTLPCFFYGSMWPPPDNWGQGTQVTVSS
B14: anti-TROP2 #TP9 VHH (VHH)
VHH: QVQLVESGGGLVQPGGSLRLSCAASGFSLDYWAIAWFRQAPGKEREGVSCSGSRGSTHYADSVKGRFTISRDNAKNTVYLQMNSLKPEDAGVYYCAVGSTLYSLTPYEYDYWGQGTQVTVSS
B15: anti-TROP2 #TP10 VHH (VHH)
VHH: B14 VHH with S28R, Y31H, A35G, R54D, G55E, H58Y, A90T, L101W
B16: anti-TROP2 #TP1 VHH (VHH)
VHH: EVQVVESGGGLAQPGGSLRLSCAASGFWFSTYAMSWARQAPGKGLEWVSGIYADGSATYYADSVKGRFTISRDNAKNTLYLHMNSLKPEDTALYYCAQGYSDYDRRVGGYDYWGQGTQVTVSS
B17: anti-TROP2 #TP2 VHH (VHH)
VHH: B16 VHH with V4L, W28T, A57G, H82Q, V107L, G109E
B18: anti-TROP2 #TP12 VHH (VHH)
VHH: QVQLVESGGGLVQPGGSLRLSCAASRFTLDYYAIGWIRQAPGKEREGVSCISSSGGSTNYADSVKGRFTISRDNAKNTVYLQMNSLKPEDTGVYYCAATTYACSGYVPRAYEYDYWGQGTQVTVSS

The chains behind the UniProt entries cited, without tags or fusion partners. Residues count along the entry.
UniProt P09758, residues 27-323: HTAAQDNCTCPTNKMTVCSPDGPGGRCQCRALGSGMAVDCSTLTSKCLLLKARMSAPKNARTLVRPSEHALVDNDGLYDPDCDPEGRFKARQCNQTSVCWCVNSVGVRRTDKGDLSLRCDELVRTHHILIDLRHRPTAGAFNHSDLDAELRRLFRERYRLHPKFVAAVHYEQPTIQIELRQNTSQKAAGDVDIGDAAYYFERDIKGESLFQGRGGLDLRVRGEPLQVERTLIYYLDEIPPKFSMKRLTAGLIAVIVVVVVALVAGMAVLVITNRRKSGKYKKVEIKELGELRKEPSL

For 18 molecules, binding results are on record in patent US20260242730A1 (POINTLOMA BIOSCIENCES, published 2026).

Where a chain is given by its changes, count along the chain named. These are yes or no findings as the source states them, for the method shown. Some binding calls cover weakened binding; strength is not graded here.

The test has as its target TROP2 on TROP2-positive cells (TROP2-CHOK1, MDA-MB-468, HCC1806, NCI-H1975, HPAF-II, N87) (human) (UniProt P09758). In words: flow cytometry, phage staining of cells. A general note: Flow cytometry measures light scatter and fluorescence of single cells or particles in a stream.
Turning to B1, the binding result was “binds”.

With B2, the binding entry is given as “binds”.

In the case of B3, the binding entry is “binds”.

B4: the binding entry is listed as “binds”.

With B5, the binding entry was “binds”.

B6: the binding result is given as “binds”.

On to B7, for which the binding result is reported as “binds”.

Regarding B8, the binding result is “binds”.

Turning to B9, the binding result is “binds”.

On to B10, for which the binding result was “binds”.

In the case of B11, the binding entry is listed as “binds”.

With B12, the binding entry is on record as “binds”.

As for B13, the binding result is given as “binds”.

On to B14, for which the binding entry is given as “binds”.

Consider B15, for which the binding entry was “binds”.

In the case of B16, the binding result is on record as “binds”.

In the case of B17, the binding entry is listed as “binds”.

Take B18: the binding entry is “binds”.
